# Values from PubChem BioAssay AID504784 (Drosophila RNAi Screening Center, 2011).
# Assay: 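Search for regulators of lipid droplet storage in oleate-fed fly cells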 (primary screen)
# System: Drosophila Kc167 embryonic cells
# Knock-down reagent: long dsRNA against Drosophila genes, about 250 ng dsRNA per well
# Time to read-out: 4 days
# Conditions: cells fed 400 µM oleic acid bound to BSA
# Read-out: 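Microscope images give a droplet-to-nucleus area ratio, taken as log and converted to a screen-wide B-score; higher values mean greater lipid storage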
# Reading the numbers: droplet/nuclear area B-score: higher = more stored lipid (overstorage)
# The deposit covers about 17,000 reagents; shown is a random part of those with a known target gene and a result. 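Each column is one replicate's B-score; the combined score over replicates was not deposited, so single values may mislead.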 Reagents against one gene are numbered here. A plus sign joins genes that one reagent is predicted to hit. No sequences are given here.
target,reagent no.,"droplet/nuclear area B-score, replicate 1","droplet/nuclear area B-score, replicate 2","droplet/nuclear area B-score, replicate 3"
CG7218,1,0.674,0.596,
CG17270,1,0.0738,-0.326,
ens,1,-0.198,0.305,
Irk2,1,-1.17,-0.147,
Diap2,1,-0.886,1.2,
CG8671,1,0.65,0.4,
CG8671,2,0.562,1.18,
agt,1,1.6,1.37,
bumpel,1,0.591,-1.64,
CG12964,1,-0.166,0.654,-1.14
CG12964,2,-1.08,-1.74,
mRpL47,1,2.17,0.921,
Mat89Ba,1,3,-3.49,
CG42449,1,-0.562,0.174,0.893
geminin,1,3.95,4.61,
CG14676,1,0.454,-0.336,
sog,1,0.259,0.415,
E(spl)m5-HLH,1,-1,-2.54,
CG8405,1,-3.3,-1.87,
CG8405,2,-0.635,-0.842,
alpha-Man-Ic,1,0.162,-1.05,
TORIP,1,-0.0242,-0.0936,0.00987
bou,1,0.853,-1.66,
CG33098,1,-0.0567,-0.144,
CG6296,1,-0.488,3.34,
Adar,1,0.802,0.648,
CG17328,1,0.155,0.422,-1.02
CG17328,2,2.61,1.86,
Oseg5,1,-0.12,-2.64,
Ssl,1,-3.4,0.146,
Clbn,1,0.321,-0.145,
CG8306,1,2.26,1.17,
yellow-f,1,-0.433,1.11,
CG31086 + CG31323,1,0.114,0.317,
CG9933,1,0.22,2.16,
para,1,-0.971,-0.605,
ATPsyndelta,1,-0.4,1.29,1.74
Prosap,1,-0.752,0.78,
Prosap,2,-2.75,-0.148,
snRNP-U1-70K,1,-2.13,0.249,0.662
snRNP-U1-70K,2,6.64,-3.64,
trbd,1,2.3,-0.234,
Nup58,1,0.275,1.49,
ste24b,1,0.975,3.26,
CIAPIN1,1,0.504,1.16,
CG1307,1,0.213,-0.239,
Polr3C,1,0.111,0.285,
ave,1,1.96,2.34,
CG14950 (retired record),1,-0.15,-1.21,
CG33090,1,-0.19,-1.6,
Zip99C,1,-2.07,4.03,
CG31760,1,3.04,0.569,
CG15059,1,1.24,-1.05,
Sod1,1,-3.09,-3.01,
Dnah3,1,-0.371,-2.19,
Dnah3,2,0.873,0.159,
